In US12428417B2, “Inhibitors of macrophage migration inhibitory factor” (The Brigham and Women's Hospital, Inc., priority 2019, dated 2025):
At least one structure is not confirmed: it was looked up by name or label, or the drawing left a doubt.

System: Pf-infected RBCs
Test: Confocal microscopy of Pf-infected RBCs with BODIPY TR lipophilic intracellular staining (egress)
Type: cell-based, P. falciparum
Conditions: treated Pf-infected RBCs; FIG. 3
From the text: One plane of confocal microscopy z-stack is shown.

CC(C)C(=O)c1c(C(C)C)nn2ccccc12 [Ibudilast]
state of mature schizonts (egress): mature schizonts remain encapsulated
